Results are given in words; binding and its absence hold for the method and conditions named. For some assays here: In cells and extracts the contact can be indirect. Some binding calls cover weakened binding; strength is not graded here. For some assays here: Where a sequence is shown, tags or fusion partners need not be part of it. Values belong to the molecule of their own block, whether it stands above or below them.
Key:
[1] = biological target: T1, endogenous NADK (human (endogenous in HEK293T)) (UniProt O95544); assay: co-IP
T1 sequence: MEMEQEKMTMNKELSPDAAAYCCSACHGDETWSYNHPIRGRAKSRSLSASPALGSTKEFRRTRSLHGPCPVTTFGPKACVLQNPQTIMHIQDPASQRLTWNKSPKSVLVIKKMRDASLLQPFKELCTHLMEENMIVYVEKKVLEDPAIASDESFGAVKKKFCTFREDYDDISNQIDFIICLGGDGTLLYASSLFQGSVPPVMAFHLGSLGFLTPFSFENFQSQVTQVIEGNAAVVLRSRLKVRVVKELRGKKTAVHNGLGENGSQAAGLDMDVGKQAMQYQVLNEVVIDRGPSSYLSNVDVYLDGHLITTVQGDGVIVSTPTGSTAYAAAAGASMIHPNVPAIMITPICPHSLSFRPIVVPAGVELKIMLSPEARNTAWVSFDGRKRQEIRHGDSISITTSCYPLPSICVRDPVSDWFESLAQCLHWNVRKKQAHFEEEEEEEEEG

Chains of the proteins cited; added tags and fusions are not shown. Lines headed by an entry give the natural chain unless they say otherwise; changes in a name come on top. Residues count along the entry.
UniProt Q96LA8, whole entry: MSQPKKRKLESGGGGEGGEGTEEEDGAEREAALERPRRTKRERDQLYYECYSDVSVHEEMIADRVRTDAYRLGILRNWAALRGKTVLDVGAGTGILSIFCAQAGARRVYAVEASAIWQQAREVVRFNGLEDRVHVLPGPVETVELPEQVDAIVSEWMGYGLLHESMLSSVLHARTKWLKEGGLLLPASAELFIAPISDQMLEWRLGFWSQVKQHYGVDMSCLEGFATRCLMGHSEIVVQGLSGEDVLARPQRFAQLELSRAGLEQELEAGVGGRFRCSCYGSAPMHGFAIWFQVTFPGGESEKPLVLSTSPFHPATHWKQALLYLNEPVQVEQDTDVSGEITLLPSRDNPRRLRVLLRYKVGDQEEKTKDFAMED
UniProt Q96LA8, 86-375: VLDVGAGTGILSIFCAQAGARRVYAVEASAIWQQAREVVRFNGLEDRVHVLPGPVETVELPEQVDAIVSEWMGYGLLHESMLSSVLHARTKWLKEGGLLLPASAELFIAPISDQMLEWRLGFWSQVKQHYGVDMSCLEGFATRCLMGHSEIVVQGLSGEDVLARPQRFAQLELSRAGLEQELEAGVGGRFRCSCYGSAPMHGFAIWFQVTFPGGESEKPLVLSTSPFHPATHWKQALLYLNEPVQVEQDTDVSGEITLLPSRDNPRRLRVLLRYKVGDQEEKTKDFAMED
UniProt Q96LA8, 1-182, stated change not applied: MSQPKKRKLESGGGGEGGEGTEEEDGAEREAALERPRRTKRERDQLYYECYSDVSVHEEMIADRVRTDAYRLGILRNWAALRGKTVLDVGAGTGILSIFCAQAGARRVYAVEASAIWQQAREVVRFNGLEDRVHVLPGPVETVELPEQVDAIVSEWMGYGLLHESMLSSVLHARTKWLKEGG

GST-NADK (human) = biological target: T2, GST-NADK (human) (UniProt O95544); assay: pull-down
T2 sequence: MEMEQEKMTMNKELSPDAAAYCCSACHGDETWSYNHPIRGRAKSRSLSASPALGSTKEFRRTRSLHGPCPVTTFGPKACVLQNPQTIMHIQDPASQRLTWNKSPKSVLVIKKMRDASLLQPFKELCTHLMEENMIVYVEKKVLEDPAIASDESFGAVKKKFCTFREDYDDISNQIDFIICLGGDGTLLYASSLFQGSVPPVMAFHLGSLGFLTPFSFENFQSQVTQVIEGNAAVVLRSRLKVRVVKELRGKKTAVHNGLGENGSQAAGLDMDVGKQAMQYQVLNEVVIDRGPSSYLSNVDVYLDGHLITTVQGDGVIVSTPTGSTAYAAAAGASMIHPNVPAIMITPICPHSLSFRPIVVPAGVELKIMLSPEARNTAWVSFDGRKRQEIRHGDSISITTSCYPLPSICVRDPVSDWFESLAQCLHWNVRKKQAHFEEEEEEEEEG

[2] = biological target: T3, HA-tagged full-length NADK (human) (UniProt O95544); assay: co-IP
T3 sequence: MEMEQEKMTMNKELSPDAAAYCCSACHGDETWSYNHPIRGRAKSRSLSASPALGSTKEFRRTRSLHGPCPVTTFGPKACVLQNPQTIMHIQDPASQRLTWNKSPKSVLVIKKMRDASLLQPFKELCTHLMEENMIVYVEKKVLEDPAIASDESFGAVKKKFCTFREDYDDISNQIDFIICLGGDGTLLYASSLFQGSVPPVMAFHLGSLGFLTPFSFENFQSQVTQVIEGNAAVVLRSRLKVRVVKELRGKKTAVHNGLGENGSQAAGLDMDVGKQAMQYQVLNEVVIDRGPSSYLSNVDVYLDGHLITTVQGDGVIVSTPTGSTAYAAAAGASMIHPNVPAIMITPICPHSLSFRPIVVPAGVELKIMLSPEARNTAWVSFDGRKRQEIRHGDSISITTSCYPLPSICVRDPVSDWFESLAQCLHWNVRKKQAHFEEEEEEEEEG

[3] = biological target: FLAG-tagged NADK N2 construct (residues 106-446) (human) (UniProt O95544); assay: co-IP
[4] = biological target: T4, FLAG-tagged full-length NADK (human) (UniProt O95544); assay: co-IP
T4 sequence: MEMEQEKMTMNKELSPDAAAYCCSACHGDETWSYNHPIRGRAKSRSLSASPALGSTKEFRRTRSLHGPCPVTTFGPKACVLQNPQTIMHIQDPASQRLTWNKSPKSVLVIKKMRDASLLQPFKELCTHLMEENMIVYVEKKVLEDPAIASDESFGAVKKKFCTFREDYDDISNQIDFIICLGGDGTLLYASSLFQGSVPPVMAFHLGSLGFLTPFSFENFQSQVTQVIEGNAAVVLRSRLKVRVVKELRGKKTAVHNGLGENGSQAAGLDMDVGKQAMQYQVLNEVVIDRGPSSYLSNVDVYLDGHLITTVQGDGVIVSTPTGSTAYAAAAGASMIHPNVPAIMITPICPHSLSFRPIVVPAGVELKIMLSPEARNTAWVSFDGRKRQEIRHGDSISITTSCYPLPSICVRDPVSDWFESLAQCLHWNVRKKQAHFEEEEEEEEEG

GST-PRMT6 = GST-PRMT6 (UniProt Q96LA8); assay: pull-down
HIS-PRMT6 = HIS-PRMT6 (UniProt Q96LA8); assay: pull-down

binding [1]: binds
Molecule: endogenous PRMT6 (from UniProt Q96LA8 1-375) (enzyme)

Molecule: PRMT6 overexpressed in HEK293T cells (from UniProt Q96LA8 1-375) (enzyme)
binding (GST-NADK (human)): binds

binding [2]: no binding
Molecule: FLAG-tagged PRMT6 D1 truncation mutant (1-182) (from UniProt Q96LA8 1-182) (domain or fragment)

binding [2]: binds
Molecule: FLAG-tagged PRMT6 D2 construct (from UniProt Q96LA8 86-375) (domain or fragment)

binding [2]: binds
Molecule: FLAG-tagged full-length PRMT6 (from UniProt Q96LA8 1-375) (enzyme)

Molecule: HA-tagged full-length PRMT6 (from UniProt Q96LA8 1-375) (enzyme)
binding [3]: binds | binding [4]: binds

binding (GST-NADK (human)): binds
Molecule: HIS-PRMT6 (from UniProt Q96LA8 1-375) (enzyme)

binding [2]: binds
Molecule: FLAG-tagged PRMT6 D3 construct (from UniProt Q96LA8 1-375) (domain or fragment)

binding (GST-PRMT6): binds
B1: NADK overexpressed in HEK293T cells (enzyme, UniProt O95544 1-446)
chain: MEMEQEKMTMNKELSPDAAAYCCSACHGDETWSYNHPIRGRAKSRSLSASPALGSTKEFRRTRSLHGPCPVTTFGPKACVLQNPQTIMHIQDPASQRLTWNKSPKSVLVIKKMRDASLLQPFKELCTHLMEENMIVYVEKKVLEDPAIASDESFGAVKKKFCTFREDYDDISNQIDFIICLGGDGTLLYASSLFQGSVPPVMAFHLGSLGFLTPFSFENFQSQVTQVIEGNAAVVLRSRLKVRVVKELRGKKTAVHNGLGENGSQAAGLDMDVGKQAMQYQVLNEVVIDRGPSSYLSNVDVYLDGHLITTVQGDGVIVSTPTGSTAYAAAAGASMIHPNVPAIMITPICPHSLSFRPIVVPAGVELKIMLSPEARNTAWVSFDGRKRQEIRHGDSISITTSCYPLPSICVRDPVSDWFESLAQCLHWNVRKKQAHFEEEEEEEEEG

binding (HIS-PRMT6): binds
B2: GST-NADK (enzyme, UniProt O95544 1-446)
chain: MEMEQEKMTMNKELSPDAAAYCCSACHGDETWSYNHPIRGRAKSRSLSASPALGSTKEFRRTRSLHGPCPVTTFGPKACVLQNPQTIMHIQDPASQRLTWNKSPKSVLVIKKMRDASLLQPFKELCTHLMEENMIVYVEKKVLEDPAIASDESFGAVKKKFCTFREDYDDISNQIDFIICLGGDGTLLYASSLFQGSVPPVMAFHLGSLGFLTPFSFENFQSQVTQVIEGNAAVVLRSRLKVRVVKELRGKKTAVHNGLGENGSQAAGLDMDVGKQAMQYQVLNEVVIDRGPSSYLSNVDVYLDGHLITTVQGDGVIVSTPTGSTAYAAAAGASMIHPNVPAIMITPICPHSLSFRPIVVPAGVELKIMLSPEARNTAWVSFDGRKRQEIRHGDSISITTSCYPLPSICVRDPVSDWFESLAQCLHWNVRKKQAHFEEEEEEEEEG

Reference: publication doi:10.1101/2024.10.11.617635 (bioRxiv, 2024)
